Among the data in patent US20160010082A1 are binding values, retold here.

The target in test [1] is YPet-Mona. Nature of the test: two-colour flow cytometry, 40 nM YPet-Mona alone or with 100 nM SA-PE. On the technique in general: A flow cytometer gives signals particle by particle.
Test [2] has as its target YPet-Mona. Nature of the test: two-colour flow cytometry, SA-PE and YPet-mona.
The target in test [3] is YPet-Mona. In words: two-colour flow cytometry, SA-PE and YPet-Mona.

Results are given in words; binding and its absence hold for the method and conditions named. Binding can be weak; no strength is given.

B1: eCPX-nSApep-cP2 (protein)
chain: GQSGQAECHPQGPPCIEGRKGGQSGQSGDYNKNQYYGITAGPAYRINDWASIYGVVGVGYGKFQTTEYPTYKHDTSDYGFSYGAGLQFNPMENVALDFSYEQSRIRSVDVGTWILSVGYRFGSKSRRATSTVTGGYAQSDAQGQMNKMGGFNLKYRYEEDNSPLGVIGSFTYTEKSRTASGGQSGQPAPSIDRSTKPPL
For B1, the binding result in test [1] is on record as “binds”.

B2: eCPX-nSApep-linker-cP2 (protein)
chain: GQSGQAECHPQGPPCIEGRKGGGSGGGSGGGSGGGSGGGSGGQSGQSGDYNKNQYYGITAGPAYRINDWASIYGVVGVGYGKFQTTEYPTYKHDTSDYGFSYGAGLQFNPMENVALDFSYEQSRIRSVDVGTWILSVGYRFGSKSRRATSTVTGGYAQSDAQGQMNKMGGFNLKYRYEEDNSPLGVIGSFTYTEKSRTASGGQSGQPAPSIDRSTKPPL
For the molecule B2, the binding result in test [2], in test [3] and in test [1] was “binds” in each case.
